Source: paper doi:10.1101/2023.12.07.570558 (bioRxiv, 2023)

Target: T1, Myc-tagged TULP3 (expressed in HEK293T cells) (human) (UniProt O75386)
T1 sequence: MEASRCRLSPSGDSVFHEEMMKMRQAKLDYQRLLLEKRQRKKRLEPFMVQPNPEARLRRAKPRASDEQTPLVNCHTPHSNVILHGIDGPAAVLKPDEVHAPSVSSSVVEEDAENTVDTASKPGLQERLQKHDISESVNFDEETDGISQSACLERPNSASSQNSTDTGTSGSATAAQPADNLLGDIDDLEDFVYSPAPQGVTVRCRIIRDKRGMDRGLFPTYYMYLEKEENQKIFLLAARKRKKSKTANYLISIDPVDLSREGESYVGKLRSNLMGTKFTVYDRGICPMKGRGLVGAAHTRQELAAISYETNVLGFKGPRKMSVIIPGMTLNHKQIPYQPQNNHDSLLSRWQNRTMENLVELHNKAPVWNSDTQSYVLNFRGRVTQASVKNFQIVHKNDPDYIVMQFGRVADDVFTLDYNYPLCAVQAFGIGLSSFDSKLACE
Experiment: co-IP

For HA-tagged SIRT3 (enzyme), which binding is on record?
The binding was “binds”.

No constants are given. Whether binding was seen depends on the method and setting. In cells and extracts the contact can be indirect. Binding can be weak; no strength is given. Tags and fused reporters may be left off the sequences shown.
